# The other results are listed elsewhere or left out.
# B1: LERP (Drosophila melanogaster), B7Z0Q8 (protein)
# chain: MRCSLQKDCAAPTQENFRQMRFPIVISLLLLLFCSGESVAADAANQLKFSTTECKLKEPIYGSTFDFSGLHSDLAHVVKSMNIGGDQFEFNICGNLSRTCNGESNVAACLKRQGKEYILGRQHELFYNNGNMFLKYKSGAKCDNGTADKPNYQLHVMFSCDYTLDAQPMHVTPYANEVCSFYISYRTPLACLSIPEGLQSNSCRVGDTKSNGTFDLMPLSDSNYHTSNRQGAFFVINVCKPVLYGENSMCPAGSSVCLFDSKATNPKERFINFGNVQTHPVVEKGQLLLRHESPTPCAKNSSANYTSVIYFSCDKFIRNAHPEFAGLGADSCTYQFNFATPLACNDLKPCTAFTSTNELLDLSSLSSKPARTLLKDGKNYTIAVCAHAGAPCQENGGACYEQNSTTISLGNSNSQLRFNQTGSLYLLYEDGAECSTATGMRRWSTKIEFVCANNATKDNGASTAGGSDSLKIIEDSNCQLLIQYQTPLACREPIRCKATTYVDHTNDGLGSSGDELIDLTPLISATDNYEARVELPASMEHLVPKTTKFFLNVCRPLVPKYQLGCAGGSAACMAKVTAAGAPEEERSMGFPLVSLTQRNRTFAELAYLKGDPCPTDNTSELSTHILFNCNMRAGRGQPVLRSVEDCAYRFEWETNVFCPPHECTFSADTCDLVHDELGRRFNFKSAPFTKDGKIEIDYNATKMSVNICGAHRKAMTDYSQALVNIFFTHESPNCGREGTMNVQIRLICSDQTESSSTISSDQQCNLLYVQRTPSICEFLSLGATQQNFESNGSTSSSTSSSSTSTTTSTTTQASPAGKPTKAATSTTTTTVGPDPAATPIGPTASVGTILGAILSVTFCVTCLGLLAFSPARRQRIRRLFRRSNSAVRYSRVQSNEEANLLLEPNGEFTESDDDMLL
# Tests used:
# Experiment in all cases: glycan array binding signal (z-score within array); higher = stronger binding
# Conditions in all cases: glycan notation: IUPAC condensed, linker removed
# [1] = biological target: GlcNAc(a1-4)Gal(b1-4)GalNAc
# Outline: (§1)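 The Consortium for Functional Glycomics database supplied 3228 glycan arrays, of which those lacking an available protein sequence were dropped. The binding signal, a within-array Z-score, was averaged across arrays of the same protein sequence and across linkers. Negative scores can be read as non-binding.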
# [2] = biological target: GlcNAc(a1-4)Gal(b1-4)GlcNAc
# Outline: as §1
# [3] = biological target: GlcNAc(a1-4)Gal(b1-4)GlcNAc(b1-3)Gal(b1-4)Glc
# Outline: as §1
# [4] = biological target: GlcNAc(a1-4)Gal(b1-4)GlcNAc(b1-3)Gal(b1-4)GlcNAc
# Outline: as §1
# [5] = biological target: GlcNAc(a1-4)Gal(b1-4)GlcNAc(b1-3)Gal(b1-4)GlcNAc(b1-3)Gal(b1-4)GlcNAc
# Outline: as §1
# [6] = biological target: GlcNAc(a1-4)Gal(b1-4)GlcNAc(b1-3)Gal(b1-4)[Fuc(a1-3)]GlcNAc(b1-3)Gal(b1-4)[Fuc(a1-3)]GlcNAc
# Outline: as §1
# [7] = biological target: GlcNAc(a1-6)Gal(b1-4)GlcNAc
# Outline: as §1
# [8] = biological target: GlcNAc(b1-2)Gal(b1-3)GalNAc
# Outline: as §1
# [9] = biological target: GlcNAc(b1-2)Man(a1-3)[GlcNAc(b1-2)Man(a1-6)]Man(b1-4)GlcNAc(b1-4)GlcNAc
# Outline: as §1
# [10] = biological target: GlcNAc(b1-2)Man(a1-3)[GlcNAc(b1-2)Man(a1-6)]Man(b1-4)GlcNAc(b1-4)[Fuc(a1-6)]GlcNAc
# Outline: as §1
# [11] = biological target: GlcNAc(b1-2)[GlcNAc(b1-4)]Man(a1-3)[GlcNAc(b1-2)Man(a1-6)]Man(b1-4)GlcNAc(b1-4)GlcNAc
# Outline: as §1
# [12] = biological target: GlcNAc(b1-3)Gal
# Outline: as §1
# [13] = biological target: GlcNAc(b1-3)Gal(b1-3)GalNAc
# Outline: as §1
# [14] = biological target: GlcNAc(b1-3)Gal(b1-4)Glc
# Outline: as §1
# [15] = biological target: GlcNAc(b1-3)Gal(b1-4)GlcNAc
# Outline: as §1
# [16] = biological target: GlcNAc(b1-3)Gal(b1-4)GlcNAc(b1-3)Gal(b1-4)GlcNAc
# Outline: as §1
# [17] = biological target: GlcNAc(b1-3)GalNAc
# Outline: as §1
# [18] = biological target: GlcNAc(b1-3)Man
# Outline: as §1
# [19] = biological target: GlcNAc(b1-3)[GlcNAc(b1-4)][GlcNAc(b1-6)]GlcNAc
# Outline: as §1
# [20] = biological target: GlcNAc(b1-3)[GlcNAc(b1-6)]Gal(b1-4)GlcNAc
# Outline: as §1
# [21] = biological target: GlcNAc(b1-3)[GlcNAc(b1-6)]GalNAc
# Outline: as §1
# [22] = biological target: GlcNAc(b1-4)Gal(b1-4)GlcNAc
# Outline: as §1
# [23] = biological target: GlcNAc(b1-4)GlcNAc
# Outline: as §1
# [24] = biological target: GlcNAc(b1-4)GlcNAc(b1-4)GlcNAc
# Outline: as §1
# [25] = biological target: GlcNAc(b1-4)GlcNAc(b1-4)GlcNAc(b1-4)GlcNAc(b1-4)GlcNAc
# Outline: as §1
# [26] = biological target: GlcNAc(b1-4)GlcNAc(b1-4)GlcNAc(b1-4)GlcNAc(b1-4)GlcNAc(b1-4)GlcNAc
# Outline: as §1
# [27] = biological target: GlcNAc(b1-4)[GlcNAc(b1-6)]GalNAc
# Outline: as §1
# [28] = biological target: GlcNAc(b1-6)Gal(b1-4)GlcNAc
# Outline: as §1
# [29] = biological target: GlcNAc(b1-6)GalNAc
# Outline: as §1
# [30] = biological target: GlcNAc3Prop(b1-4)GlcNAc
# Outline: as §1
# [31] = biological target: GlcNAc6S(b1-3)Gal(b1-4)GlcNAc
# Outline: as §1
# [32] = biological target: Kdn(a2-3)Gal(b1-3)GalNAc
# Outline: as §1
# [33] = biological target: Kdn(a2-3)Gal(b1-3)GlcNAc
# Outline: as §1
# [34] = biological target: Kdn(a2-3)Gal(b1-4)Glc
# Outline: as §1
# [35] = biological target: Kdn(a2-3)Gal(b1-4)GlcNAc
# Outline: as §1
# [36] = biological target: Kdn(a2-3)Gal(b1-4)[Fuc(a1-3)]GlcNAc
# Outline: as §1
# [37] = biological target: Kdn(a2-6)Gal(b1-4)GlcNAc
# Outline: as §1
# [38] = biological target: Man(a1-2)Man(a1-2)Man(a1-3)Man
# Outline: as §1
# [39] = biological target: Man(a1-2)Man(a1-2)Man(a1-6)[Man(a1-3)]Man
# Outline: as §1
# [40] = biological target: Man(a1-2)Man(a1-3)Man
# Outline: as §1
# [41] = biological target: Man(a1-2)Man(a1-3)[Man(a1-2)Man(a1-6)]Man
# Outline: as §1
# [42] = biological target: Man(a1-2)Man(a1-3)[Man(a1-2)Man(a1-6)]Man(a1-6)[Man(a1-2)Man(a1-2)Man(a1-3)]Man
# Outline: as §1
# [43] = biological target: Man(a1-2)Man(a1-3)[Man(a1-2)Man(a1-6)]Man(a1-6)[Man(a1-2)Man(a1-2)Man(a1-3)]Man(b1-4)GlcNAc(b1-4)GlcNAc
# Outline: as §1
# [44] = biological target: Man(a1-2)Man(a1-3)[Man(a1-6)]Man(a1-6)[Man(a1-2)Man(a1-3)]Man(b1-4)GlcNAc(b1-4)GlcNAc
# Outline: as §1
# [45] = biological target: Man(a1-2)Man(a1-6)[Man(a1-3)]Man(a1-6)[Man(a1-2)Man(a1-2)Man(a1-3)]Man
# Outline: as §1
# [46] = biological target: Man(a1-2)Man(a1-6)[Man(a1-3)]Man(a1-6)[Man(a1-2)Man(a1-2)Man(a1-3)]Man(b1-4)GlcNAc(b1-4)GlcNAc
# Outline: as §1
# [47] = biological target: Man(a1-3)[Man(a1-6)]Man
# Outline: as §1
# [48] = biological target: Man(a1-3)[Man(a1-6)]Man(a1-6)[Man(a1-2)Man(a1-3)]Man(b1-4)GlcNAc(b1-4)GlcNAc
# Outline: as §1
# [49] = biological target: Man(a1-3)[Man(a1-6)]Man(a1-6)[Man(a1-3)]Man
# Outline: as §1
# [50] = biological target: Man(a1-3)[Man(a1-6)]Man(a1-6)[Man(a1-3)]Man(b1-4)GlcNAc(b1-4)GlcNAc
# Outline: as §1
# [51] = biological target: Man(a1-3)[Man(a1-6)]Man(b1-4)GlcNAc(b1-4)GlcNAc
# Outline: as §1
# [52] = biological target: Man(a1-6)Man
# Outline: as §1
# [53] = biological target: Man(b1-4)GlcNAc
# Outline: as §1
# [54] = biological target: Neu5Ac(a2-3)Gal
# Outline: as §1
# [55] = biological target: Neu5Ac(a2-3)Gal(b1-3)GalNAc
# Outline: as §1
# [56] = biological target: Neu5Ac(a2-3)Gal(b1-3)GalNAc(b1-3)Gal(a1-4)Gal(b1-4)Glc
# Outline: as §1
# [57] = biological target: Neu5Ac(a2-3)Gal(b1-3)GalNAc(b1-4)[Neu5Ac(a2-3)]Gal(b1-4)Glc
# Outline: as §1
# [58] = biological target: Neu5Ac(a2-3)Gal(b1-3)GalNAc6S
# Outline: as §1
# [59] = biological target: Neu5Ac(a2-3)Gal(b1-3)GlcNAc
# Outline: as §1
# [60] = biological target: Neu5Ac(a2-3)Gal(b1-3)GlcNAc(b1-2)Man(a1-3)[Neu5Ac(a2-3)Gal(b1-3)GlcNAc(b1-2)Man(a1-6)]Man(b1-4)GlcNAc(b1-4)GlcNAc
# Outline: as §1
binder,measurement,setting,value
B1,glycan array binding signal (z-score),[1],0.393
same,glycan array binding signal (z-score),[2],-1.06
same,glycan array binding signal (z-score),[3],-0.791
same,glycan array binding signal (z-score),[4],-0.396
same,glycan array binding signal (z-score),[5],-0.742
same,glycan array binding signal (z-score),[6],3.64
same,glycan array binding signal (z-score),[7],-0.627
same,glycan array binding signal (z-score),[8],-0.531
same,glycan array binding signal (z-score),[9],0.327
same,glycan array binding signal (z-score),[10],6.93
same,glycan array binding signal (z-score),[11],-0.732
same,glycan array binding signal (z-score),[12],-1.15
same,glycan array binding signal (z-score),[13],-0.66
same,glycan array binding signal (z-score),[14],0.761
same,glycan array binding signal (z-score),[15],-0.94
same,glycan array binding signal (z-score),[16],-0.08
same,glycan array binding signal (z-score),[17],-0.372
same,glycan array binding signal (z-score),[18],-0.423
same,glycan array binding signal (z-score),[19],0.739
same,glycan array binding signal (z-score),[20],-0.741
same,glycan array binding signal (z-score),[21],-0.07
same,glycan array binding signal (z-score),[22],-0.229
same,glycan array binding signal (z-score),[23],-0.456
same,glycan array binding signal (z-score),[24],-0.554
same,glycan array binding signal (z-score),[25],-0.437
same,glycan array binding signal (z-score),[26],-0.524
same,glycan array binding signal (z-score),[27],0.075
same,glycan array binding signal (z-score),[28],0.523
same,glycan array binding signal (z-score),[29],-0.122
same,glycan array binding signal (z-score),[30],-0.064
same,glycan array binding signal (z-score),[31],0.193
same,glycan array binding signal (z-score),[32],-0.203
same,glycan array binding signal (z-score),[33],-0.084
same,glycan array binding signal (z-score),[34],0.317
same,glycan array binding signal (z-score),[35],-0.819
same,glycan array binding signal (z-score),[36],-0.158
same,glycan array binding signal (z-score),[37],-0.144
same,glycan array binding signal (z-score),[38],5.38
same,glycan array binding signal (z-score),[39],-0.549
same,glycan array binding signal (z-score),[40],-0.182
same,glycan array binding signal (z-score),[41],-0.358
same,glycan array binding signal (z-score),[42],-0.61
same,glycan array binding signal (z-score),[43],-0.353
same,glycan array binding signal (z-score),[44],-0.137
same,glycan array binding signal (z-score),[45],-0.378
same,glycan array binding signal (z-score),[46],-0.533
same,glycan array binding signal (z-score),[47],-0.079
same,glycan array binding signal (z-score),[48],-0.031
same,glycan array binding signal (z-score),[49],-0.364
same,glycan array binding signal (z-score),[50],-0.593
same,glycan array binding signal (z-score),[51],2.66
same,glycan array binding signal (z-score),[52],-0.091
same,glycan array binding signal (z-score),[53],0.006
same,glycan array binding signal (z-score),[54],-0.653
same,glycan array binding signal (z-score),[55],0.949
same,glycan array binding signal (z-score),[56],-0.045
same,glycan array binding signal (z-score),[57],-0.493
same,glycan array binding signal (z-score),[58],-0.584
same,glycan array binding signal (z-score),[59],2.14
same,glycan array binding signal (z-score),[60],-0.331

# 16 entries from above, bar-delimited:
binder | measurement | setting | value
B1 | glycan array binding signal (z-score) | [6] | 3.64
same | glycan array binding signal (z-score) | [7] | -0.627
same | glycan array binding signal (z-score) | [11] | -0.732
same | glycan array binding signal (z-score) | [12] | -1.15
same | glycan array binding signal (z-score) | [16] | -0.08
same | glycan array binding signal (z-score) | [17] | -0.372
same | glycan array binding signal (z-score) | [20] | -0.741
same | glycan array binding signal (z-score) | [22] | -0.229
same | glycan array binding signal (z-score) | [29] | -0.122
same | glycan array binding signal (z-score) | [31] | 0.193
same | glycan array binding signal (z-score) | [32] | -0.203
same | glycan array binding signal (z-score) | [34] | 0.317
same | glycan array binding signal (z-score) | [38] | 5.38
same | glycan array binding signal (z-score) | [43] | -0.353
same | glycan array binding signal (z-score) | [45] | -0.378
same | glycan array binding signal (z-score) | [50] | -0.593

# From the supplement of paper PMC8728848
